The other results are listed elsewhere or left out. These are further read-outs of the screen, such as a control signal, another cell line or another target. No call is given for them. Most of these compounds were active or inconclusive in the main read-out, so they are no random draw. Words in brackets tell the shape of the fitted curve; partial curves, single points and poor fits give uncertain potencies.

The values below come from PubChem BioAssay AID445 (National Center for Advancing Translational Sciences (NCATS), 2006).

A short description of the test: IkB Signaling. To be noted: ABC-DLBCL IkBa-CBG/CBR dual luciferase ratio (green luciferase fused to IkBa over red control in OCI-Ly3 lymphoma cells), 4 h; measured here: control luc red channel unless noted. The procedure, abridged:
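Luminescence ratio of IκBα-fused green versus native red beetle luciferase in OCI-Ly3 cells, 4 h post-doxycycline with compound; red signal alone, scaled from basal (0%) to zero light (-100%), flagged nonspecific or cytotoxic effects.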
Take `Cc1nc2cccnc2n1C1CCN(S(=O)(=O)c2ccc(C(C)C)cc2)CC1`: the AC50 is 15.8 µM [falling, partial curve]. The same measure for `CCOc1ccc2[nH]c(=O)c(CN(Cc3cccs3)Cc3nnnn3C(C)(C)C)cc2c1`: 31.6 µM [falling, single point]; for `O=C(CSc1nc(-c2ccco2)nc2cc(=O)[nH]n12)Nc1ccccc1F`: 15.8 µM [falling, single point]; for `Cc1cccc(N2CCN(C(=O)C3CCN(S(=O)(=O)c4cccc5nsnc45)CC3)CC2C)c1` (stereo not given): 7.94 µM [falling, partial curve]. The same measure for `COc1ccc(NC(=O)CSc2nc(C)cc(C)c2C(=O)Nc2cccc(C)c2)cc1`: 31.6 µM [falling, single point]; for `c1ccc(-n2nnnc2-n2nnc3ccccc32)cc1`: 3.98 µM [rising, partial curve]; for `CCOc1ccc(-c2cc(CCCC(=O)NCCc3ccc(OCC)c(OCC)c3)no2)cc1`: 0.501 µM [falling, full curve]. The same measure for `C[C@@H](NC(=O)CN(c1ccccc1)S(=O)(=O)N(C)C)c1ccccc1`: 12.6 µM [falling, partial curve]; for `Cc1ccc(NC(=O)Nc2ccc3nc(N4CCN(C)CC4)cc(C)c3c2)cc1C`: 39.8 µM [falling, single point].

In the case of `Cc1ccccc1NC(=O)c1ccc(F)c(S(=O)(=O)NC2CCCC2)c1`, the AC50 was 12.6 µM [falling, single point]. The same measure for `CCN1CCN(C(=O)c2ccc3c(c2)N(Cc2ccccc2F)C(=O)c2ccccc2S3(=O)=O)CC1`: 1.26 µM [falling, partial curve]; for `Cc1cc2nc(-c3ccc(Cl)cc3)cc(C(F)(F)F)n2n1`: 6.31 µM [rising, partial curve]; for `CC(=O)c1cccc(NC(=O)CSc2nnc3ccc(-c4ccc(C)cc4)nn23)c1`: 7.94 µM [falling, single point]. For the compound `O=C(NCc1ccco1)C1CCN(C(=O)N2CCOc3ccc(Cl)cc32)CC1`, the AC50 was 12.6 µM [falling, partial curve].

Consider `O=c1cc2nc(-c3cccs3)nc(SCCOc3ccc(Cl)cc3)n2[nH]1`, for which the half-maximal activity concentration (AC50) is 25.1 µM [rising, partial curve].

With `COc1cc(Cl)c(C)cc1Nc1nc2ccccc2nc1NS(=O)(=O)c1ccccc1`, the AC50 was 0.02 µM [falling, full curve]. With `COc1ccc(-c2noc(CN3CCN(c4ccccc4F)CC3)n2)cc1OC`, the half-maximal activity concentration (AC50) is 15.8 µM [falling, partial curve]. `Cc1cccc(C(=O)Nc2ccc(-c3nc4cc(C(C)C)ccc4o3)cc2)c1`: the AC50 is 7.94 µM [falling, partial curve]. The same measure for `Cc1ccc(N2CCN(C(=O)NCc3noc4ccccc34)CC2C)cc1` (stereo not given): 10 µM [falling, partial curve]; for `O=C(Oc1cc(=O)oc2ccccc12)c1ccco1`: 0.158 µM [falling, full curve]; for `COc1cccc(-c2cc(C(=O)NCc3ccco3)no2)c1`: 12.6 µM [falling, partial curve].

With `COc1ccc(Cl)cc1S(=O)(=O)N1CCN(Cc2cccc(F)c2)CC1`, the AC50 was 10 µM [falling, partial curve]. The result for `O=C(c1ccco1)N1CCN(c2c(-c3ccccc3)c3cc(Cl)ccc3[nH]c2=O)CC1` reads 15.8 µM [falling, partial curve]; that for `CCCOc1ccc(C(=O)N(Cc2cccs2)c2ccc(C)cc2)cc1`, 20 µM [falling, partial curve]; that for `COc1ccc(-c2c3c(nc4sc(C(=O)Nc5ccc(F)cc5)c(N)c24)CC(C)(C)CC3=O)cc1`, 15.8 µM [falling, partial curve].

For the compound `CCOC(=O)c1c(C)oc2ncnc(NCCCN3CCN(c4cc(C)ccc4C)CC3)c12`, the AC50 was 15.8 µM [falling, partial curve]. The same measure for `CCCN(CCC)C(=O)Cn1c(=O)n(-c2ccc(C)cc2)c(=O)c2ccc(C(=O)NCc3ccccc3Cl)cc21`: 6.31 µM [falling, partial curve]. The result for `CNC(=O)C1CCN(Cc2cc3ccccc3n2Cc2ccccc2C)CC1` reads 10 µM [falling, partial curve, poor fit]. For `Cc1ccc(-c2cn3c(n2)sc2cc(C(=O)NCc4cccs4)ccc23)cc1`, the AC50 is 25.1 µM [falling, partial curve]. The result for `CCC1CN(C(=O)N2CCC(C(=O)NCCc3ccc(C)cc3)CC2)c2ccccc2O1` (stereo not given) reads 0.631 µM [rising, full curve, poor fit]; that for `Cc1oc(-c2ccccc2)nc1CSc1nnc(C)n2c1cc1sccc12`, 39.8 µM [falling, single point].

For the compound `CCOCCCNC(=O)CCC(=O)NNc1nc2ccccc2c2nc(-c3ccccc3)nn12`, the AC50 was 15.8 µM [falling, single point]. As to `O=C(NCc1cccc(Br)c1)C1CCN(C(=O)c2sccc2-n2cccc2)CC1`, the half-maximal activity concentration (AC50) was 15.8 µM [falling, partial curve]. The same measure for `O=C(CCc1nnc2n(Cc3ccccc3Cl)c(=O)c3ccccc3n12)Nc1ccc(F)c(F)c1`: 15.8 µM [falling, single point]; for `Cc1ccc(O)c(NC(=O)c2noc3c2CCCCC3)c1`: 1.58 µM [rising, partial curve]; for `CC(=O)N1c2ccccc2CC1C(=O)N1CCN(c2cccc(Cl)c2)CC1` (stereo not given): 12.6 µM [falling, partial curve]. As for `O=C(CC1C(=O)N(c2ccc(F)cc2)C(=O)N1Cc1ccc2c(c1)OCO2)Nc1ccc(F)cc1` (stereo not given), the concentration at half-maximal activity (AC50) was 15.8 µM [falling, single point]. The result for `Nc1c(-c2nc(-c3cccs3)no2)nnn1-c1cccc(F)c1` reads 0.316 µM [rising, full curve].

Take `CCOC(=O)c1cnc2c(C)cccc2c1NCCc1ccc(OC)c(OC)c1`: the AC50 is 12.6 µM [falling, partial curve].

Consider `Cc1ccc(C)c(CN2C(=O)c3ccccc3S(=O)(=O)c3ccc(C(=O)N4CCCC4)cc32)c1`, for which the half-maximal activity concentration (AC50) was 31.6 µM [falling, single point].
